Results as given in the supplement of paper PMC12067093, “Discovery and optimisation of a covalent ligand for TRIM25 and its application to targeted protein ubiquitination” (Chemical Science, 2025).
This is one part of the list.

Chains of the proteins cited; added tags and fusions are not shown. Lines headed by an entry give the natural chain unless they say otherwise; changes in a name come on top.
UniProt Q9NYV4, whole entry, looked up: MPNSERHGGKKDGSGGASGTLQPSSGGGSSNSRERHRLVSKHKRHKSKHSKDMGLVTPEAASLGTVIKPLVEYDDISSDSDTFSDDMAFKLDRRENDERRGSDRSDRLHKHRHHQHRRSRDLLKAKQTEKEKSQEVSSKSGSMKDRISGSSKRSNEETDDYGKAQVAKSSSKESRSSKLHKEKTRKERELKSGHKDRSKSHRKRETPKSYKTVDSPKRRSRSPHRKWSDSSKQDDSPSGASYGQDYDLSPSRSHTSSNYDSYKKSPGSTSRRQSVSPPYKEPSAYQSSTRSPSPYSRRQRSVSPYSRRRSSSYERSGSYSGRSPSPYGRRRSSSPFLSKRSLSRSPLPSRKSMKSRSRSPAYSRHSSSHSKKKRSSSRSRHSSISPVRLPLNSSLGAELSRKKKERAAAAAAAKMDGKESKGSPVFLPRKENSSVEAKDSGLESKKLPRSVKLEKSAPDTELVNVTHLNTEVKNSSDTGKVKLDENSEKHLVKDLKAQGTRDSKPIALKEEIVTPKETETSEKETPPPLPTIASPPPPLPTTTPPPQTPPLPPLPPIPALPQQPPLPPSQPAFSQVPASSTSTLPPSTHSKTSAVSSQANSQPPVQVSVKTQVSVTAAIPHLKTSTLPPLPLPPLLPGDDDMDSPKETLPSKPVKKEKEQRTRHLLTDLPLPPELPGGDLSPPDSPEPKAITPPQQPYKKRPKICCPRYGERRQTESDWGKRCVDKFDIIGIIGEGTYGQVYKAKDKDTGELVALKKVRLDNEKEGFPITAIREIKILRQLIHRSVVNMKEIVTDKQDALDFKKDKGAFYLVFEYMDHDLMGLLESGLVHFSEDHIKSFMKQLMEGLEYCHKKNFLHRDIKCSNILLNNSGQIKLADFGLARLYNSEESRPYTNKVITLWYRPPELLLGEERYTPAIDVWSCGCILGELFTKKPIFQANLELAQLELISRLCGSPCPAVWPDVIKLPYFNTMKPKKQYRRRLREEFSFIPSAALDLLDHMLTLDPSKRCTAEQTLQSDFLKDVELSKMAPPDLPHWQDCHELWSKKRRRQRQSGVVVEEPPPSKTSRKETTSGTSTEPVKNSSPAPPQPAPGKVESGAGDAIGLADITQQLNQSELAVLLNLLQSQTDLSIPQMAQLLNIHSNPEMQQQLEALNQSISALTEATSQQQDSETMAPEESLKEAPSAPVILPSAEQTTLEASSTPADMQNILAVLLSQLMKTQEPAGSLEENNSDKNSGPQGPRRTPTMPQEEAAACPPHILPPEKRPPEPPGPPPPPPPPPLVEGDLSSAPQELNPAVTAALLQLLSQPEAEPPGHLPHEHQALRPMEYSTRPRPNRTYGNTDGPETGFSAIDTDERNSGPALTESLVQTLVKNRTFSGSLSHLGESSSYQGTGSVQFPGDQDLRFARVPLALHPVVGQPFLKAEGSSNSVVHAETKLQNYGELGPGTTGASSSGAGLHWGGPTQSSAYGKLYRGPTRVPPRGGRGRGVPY
UniProt Q5SW79: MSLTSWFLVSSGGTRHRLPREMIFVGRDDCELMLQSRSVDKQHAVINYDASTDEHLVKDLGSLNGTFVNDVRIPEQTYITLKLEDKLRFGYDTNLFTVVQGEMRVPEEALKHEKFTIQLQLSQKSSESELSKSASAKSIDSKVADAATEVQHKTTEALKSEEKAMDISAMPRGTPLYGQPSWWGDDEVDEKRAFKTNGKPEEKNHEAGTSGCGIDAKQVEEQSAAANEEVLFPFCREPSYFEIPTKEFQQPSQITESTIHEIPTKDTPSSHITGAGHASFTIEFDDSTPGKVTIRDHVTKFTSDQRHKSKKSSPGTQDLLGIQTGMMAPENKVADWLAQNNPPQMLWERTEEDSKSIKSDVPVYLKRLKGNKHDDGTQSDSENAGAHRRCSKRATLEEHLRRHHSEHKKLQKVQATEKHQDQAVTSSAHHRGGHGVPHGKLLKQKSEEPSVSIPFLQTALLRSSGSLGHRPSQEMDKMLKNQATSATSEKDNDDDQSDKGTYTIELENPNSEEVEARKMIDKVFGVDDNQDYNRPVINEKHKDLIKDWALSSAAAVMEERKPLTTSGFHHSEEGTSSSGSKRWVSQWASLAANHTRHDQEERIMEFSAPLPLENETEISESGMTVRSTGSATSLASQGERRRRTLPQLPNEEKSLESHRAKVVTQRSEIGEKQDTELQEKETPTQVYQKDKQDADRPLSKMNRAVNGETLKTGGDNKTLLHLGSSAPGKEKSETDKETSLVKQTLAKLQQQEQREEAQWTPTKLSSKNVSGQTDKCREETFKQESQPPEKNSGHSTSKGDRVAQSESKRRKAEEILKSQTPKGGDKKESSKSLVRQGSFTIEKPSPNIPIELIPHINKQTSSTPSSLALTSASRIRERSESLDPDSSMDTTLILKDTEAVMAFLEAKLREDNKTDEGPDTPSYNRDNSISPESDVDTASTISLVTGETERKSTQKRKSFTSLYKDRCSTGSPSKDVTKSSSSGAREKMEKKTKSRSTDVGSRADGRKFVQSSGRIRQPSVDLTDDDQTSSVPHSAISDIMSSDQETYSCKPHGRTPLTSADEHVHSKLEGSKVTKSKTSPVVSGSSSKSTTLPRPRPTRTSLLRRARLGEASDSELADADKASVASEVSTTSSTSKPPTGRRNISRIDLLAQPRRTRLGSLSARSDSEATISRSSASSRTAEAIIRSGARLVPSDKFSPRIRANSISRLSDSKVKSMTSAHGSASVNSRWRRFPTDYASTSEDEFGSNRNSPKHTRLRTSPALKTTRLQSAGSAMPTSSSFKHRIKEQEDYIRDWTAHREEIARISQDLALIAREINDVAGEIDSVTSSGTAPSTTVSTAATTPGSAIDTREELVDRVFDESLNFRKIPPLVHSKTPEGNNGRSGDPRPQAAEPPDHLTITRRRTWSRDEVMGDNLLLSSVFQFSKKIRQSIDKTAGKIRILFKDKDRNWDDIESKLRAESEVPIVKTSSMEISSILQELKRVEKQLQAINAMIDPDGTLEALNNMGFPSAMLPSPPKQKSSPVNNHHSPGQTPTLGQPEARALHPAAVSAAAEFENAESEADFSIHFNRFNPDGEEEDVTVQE
UniProt Q00535, whole entry, looked up: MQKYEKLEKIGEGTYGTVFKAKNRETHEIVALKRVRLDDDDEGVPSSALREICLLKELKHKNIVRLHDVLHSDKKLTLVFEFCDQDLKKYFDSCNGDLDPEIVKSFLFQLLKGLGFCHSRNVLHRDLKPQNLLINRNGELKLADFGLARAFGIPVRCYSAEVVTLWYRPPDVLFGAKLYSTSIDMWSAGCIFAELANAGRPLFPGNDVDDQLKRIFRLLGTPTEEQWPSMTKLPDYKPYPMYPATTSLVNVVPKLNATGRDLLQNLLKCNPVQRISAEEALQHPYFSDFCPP
UniProt P27701: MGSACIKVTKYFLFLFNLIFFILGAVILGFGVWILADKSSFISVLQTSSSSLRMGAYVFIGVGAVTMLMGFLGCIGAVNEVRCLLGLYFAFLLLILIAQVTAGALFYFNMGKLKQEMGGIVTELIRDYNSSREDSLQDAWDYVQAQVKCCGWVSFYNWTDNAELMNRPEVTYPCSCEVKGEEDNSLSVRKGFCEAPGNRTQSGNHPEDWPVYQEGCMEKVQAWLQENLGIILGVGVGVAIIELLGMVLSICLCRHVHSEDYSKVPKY
UniProt P50990: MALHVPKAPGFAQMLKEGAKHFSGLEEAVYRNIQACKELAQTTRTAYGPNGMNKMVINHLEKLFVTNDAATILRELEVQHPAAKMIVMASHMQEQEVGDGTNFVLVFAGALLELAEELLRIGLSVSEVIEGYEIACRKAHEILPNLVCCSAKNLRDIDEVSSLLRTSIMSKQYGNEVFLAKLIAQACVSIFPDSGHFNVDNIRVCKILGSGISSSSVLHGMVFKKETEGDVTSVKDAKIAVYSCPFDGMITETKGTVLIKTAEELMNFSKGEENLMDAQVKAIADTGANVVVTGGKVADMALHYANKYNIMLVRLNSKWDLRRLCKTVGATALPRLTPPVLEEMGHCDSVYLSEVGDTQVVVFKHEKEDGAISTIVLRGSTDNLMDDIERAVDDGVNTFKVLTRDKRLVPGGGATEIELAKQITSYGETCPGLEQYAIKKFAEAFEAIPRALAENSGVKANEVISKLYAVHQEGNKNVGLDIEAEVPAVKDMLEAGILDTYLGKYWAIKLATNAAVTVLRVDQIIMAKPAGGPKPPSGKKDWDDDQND
UniProt P60953, whole entry, looked up: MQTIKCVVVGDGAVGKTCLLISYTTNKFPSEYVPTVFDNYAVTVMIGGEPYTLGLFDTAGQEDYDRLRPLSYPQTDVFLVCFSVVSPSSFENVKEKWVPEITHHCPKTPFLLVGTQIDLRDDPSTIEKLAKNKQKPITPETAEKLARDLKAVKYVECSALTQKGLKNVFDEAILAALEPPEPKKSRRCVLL
UniProt O75419: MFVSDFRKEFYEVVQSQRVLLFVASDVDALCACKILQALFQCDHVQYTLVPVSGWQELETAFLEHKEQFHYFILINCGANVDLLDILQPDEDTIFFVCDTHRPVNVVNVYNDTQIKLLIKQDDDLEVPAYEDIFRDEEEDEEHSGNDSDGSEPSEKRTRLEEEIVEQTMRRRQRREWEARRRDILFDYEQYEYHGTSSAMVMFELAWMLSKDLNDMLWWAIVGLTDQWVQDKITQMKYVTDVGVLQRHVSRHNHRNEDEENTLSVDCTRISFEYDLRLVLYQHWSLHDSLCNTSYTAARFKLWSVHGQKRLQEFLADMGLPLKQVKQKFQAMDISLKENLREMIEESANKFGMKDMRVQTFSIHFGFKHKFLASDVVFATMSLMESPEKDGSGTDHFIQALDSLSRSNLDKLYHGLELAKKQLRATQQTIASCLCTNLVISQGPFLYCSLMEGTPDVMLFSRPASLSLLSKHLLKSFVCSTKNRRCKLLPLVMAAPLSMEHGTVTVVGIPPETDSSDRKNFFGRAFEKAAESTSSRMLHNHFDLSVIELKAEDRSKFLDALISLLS
UniProt Q12834, whole entry, looked up: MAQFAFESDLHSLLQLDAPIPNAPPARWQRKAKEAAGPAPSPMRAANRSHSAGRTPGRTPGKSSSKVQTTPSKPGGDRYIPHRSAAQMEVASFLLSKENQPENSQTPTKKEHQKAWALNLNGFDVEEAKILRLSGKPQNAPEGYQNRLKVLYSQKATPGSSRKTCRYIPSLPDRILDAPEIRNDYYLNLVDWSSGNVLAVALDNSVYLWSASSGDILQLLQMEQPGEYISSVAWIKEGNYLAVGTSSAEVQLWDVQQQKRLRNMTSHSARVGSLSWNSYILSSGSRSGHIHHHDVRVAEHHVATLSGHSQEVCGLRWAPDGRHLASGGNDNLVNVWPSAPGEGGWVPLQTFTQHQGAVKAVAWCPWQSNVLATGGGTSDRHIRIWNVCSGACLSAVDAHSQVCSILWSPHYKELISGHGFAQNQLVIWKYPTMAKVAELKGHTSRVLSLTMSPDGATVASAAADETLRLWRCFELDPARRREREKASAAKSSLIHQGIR
UniProt Q5ZPR3: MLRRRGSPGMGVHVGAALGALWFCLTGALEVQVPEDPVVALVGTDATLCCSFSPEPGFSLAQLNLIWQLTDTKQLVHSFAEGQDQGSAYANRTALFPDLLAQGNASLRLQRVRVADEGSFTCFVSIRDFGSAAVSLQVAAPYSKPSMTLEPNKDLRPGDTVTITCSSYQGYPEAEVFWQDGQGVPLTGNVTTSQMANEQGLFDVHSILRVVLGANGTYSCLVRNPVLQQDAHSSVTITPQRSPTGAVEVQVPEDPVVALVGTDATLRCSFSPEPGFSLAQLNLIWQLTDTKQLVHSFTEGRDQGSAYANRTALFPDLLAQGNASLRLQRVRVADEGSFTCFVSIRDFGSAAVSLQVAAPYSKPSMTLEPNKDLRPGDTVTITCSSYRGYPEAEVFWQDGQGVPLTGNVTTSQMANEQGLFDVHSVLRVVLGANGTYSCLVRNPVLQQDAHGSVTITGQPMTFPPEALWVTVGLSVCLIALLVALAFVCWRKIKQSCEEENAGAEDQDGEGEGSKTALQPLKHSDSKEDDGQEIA
UniProt Q92879: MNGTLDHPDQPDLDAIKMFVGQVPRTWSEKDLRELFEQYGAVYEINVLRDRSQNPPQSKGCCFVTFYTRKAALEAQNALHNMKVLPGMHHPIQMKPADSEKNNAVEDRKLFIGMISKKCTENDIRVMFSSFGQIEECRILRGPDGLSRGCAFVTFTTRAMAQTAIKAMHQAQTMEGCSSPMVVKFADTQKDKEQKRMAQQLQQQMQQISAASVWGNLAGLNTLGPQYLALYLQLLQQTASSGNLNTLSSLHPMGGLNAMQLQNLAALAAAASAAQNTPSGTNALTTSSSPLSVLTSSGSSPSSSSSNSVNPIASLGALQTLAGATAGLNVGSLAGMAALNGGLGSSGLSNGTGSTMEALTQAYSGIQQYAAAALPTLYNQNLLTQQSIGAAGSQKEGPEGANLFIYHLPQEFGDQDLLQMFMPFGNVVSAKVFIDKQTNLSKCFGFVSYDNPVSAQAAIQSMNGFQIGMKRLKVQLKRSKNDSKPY

Compound: Cc1cc(ccc1-c1ccccc1)C(=O)N1CCCN(CC1)C(=O)CCl [compound 10]
Experiment: probe-labelled cysteine peptide fold change vs DMSO (competition) (log2 fold change); higher = less target engagement (more negative = stronger competition)
Details: THP-1, incubation time: 4 h
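Further: competitive profiling in live THP-1 cells: cysteine peptides tagged with an iodoacetamide desthiobiotin (IA-DTB) probe, intensity after compound treatment relative to DMSO-treated cells.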

Target | probe-labelled cysteine peptide fold change (10 µM) | probe-labelled cysteine peptide fold change (50 µM)
CEP350_Q5VT06_413_VAQLSSTECR (UniProt Q5VT06) | 0.0126 | 0.528
CEP350_Q5VT06_2910_RVTQQPCETLLAVPHTAEEVEILVHNAAEELWK (UniProt Q5VT06) | -0.0741 | -0.0102
CENPH_Q9H3R5_35_AGGPPQVAGAQAACSEDR (UniProt Q9H3R5) | 0.157 | -0.317
CDK2_P24941_177_APEILLGCK (UniProt P24941) | -0.146 | -0.17
CDK12_Q9NYV4_1039_MAPPDLPHWQDCHELWSK (UniProt Q9NYV4) | -0.149 | -0.32
CDCA7L_Q96GN5_383_GQFCGPCLR (UniProt Q96GN5) | -0.000758 | -0.185
CEP170_Q5SW79_776_CREETFKQESQPPEK (UniProt Q5SW79) | -0.0718 | -0.739
CEP85_Q6P2H3_527_VTELESLLEETQAICR (UniProt Q6P2H3) | 0.0519 | 0.465
CD46_P15529_162_VLCTPPPK (UniProt P15529) | 0.00526 | 0.0163
CENPF_P49454_2985_EMLETQVAHLCSQQSK (UniProt P49454) | 0.304 | 0.288
CDK5_Q00535_290_ISAEEALQHPYFSDFCPP (UniProt Q00535) | -0.284 | -0.403
CENPF_P49454_569_DCSQDLLK (UniProt P49454) | 0.00598 | -0.032
CD82_P27701_216_TQSGNHPEDWPVYQEGCMEK (UniProt P27701) | -0.269 | -0.033
CCT8_P50990_244_IAVYSCPFDGMITETK (UniProt P50990) | -0.00607 | -0.342
CDC42_P60953_105_EKWVPEITHHCPK (UniProt P60953) | -0.508 | -0.929
CDC27_P30260_137_GSECYQK (UniProt P30260) | -0.0928 | -0.0624
CEP152_O94986_732_EVTAVQECYLEVCR (UniProt O94986) | 0.205 | 0.244
CDC45_O75419_267_HNHRNEDEENTLSVDCTR (UniProt O75419) | 0.0632 | -0.279
CEP170_Q5SW79_235_QVEEQSAAANEEVLFPFCR (UniProt Q5SW79) | -0.166 | 0.167
CDC20_Q12834_313_VAEHHVATLSGHSQEVCGLR (UniProt Q12834) | 0.0629 | 0.0196
CD180_Q99467_419_ECPQLELLDLAFTR (UniProt Q99467) | -0.115 | -0.108
CDCA2_Q69YH5_979_SFCISTLANTK (UniProt Q69YH5) | -0.0796 | -0.162

Target | probe-labelled cysteine peptide fold change (10 µM) | probe-labelled cysteine peptide fold change (50 µM)
CD276_Q5ZPR3_383_DLRPGDTVTITCSSYR (UniProt Q5ZPR3) | 0.0128 | 0.0319
CDKAL1_Q5VV42_109_ITENASDADLWLLNSCTVK (UniProt Q5VV42) | 0.15 | 0.198
CELF1_Q92879_150_GCAFVTFTTR (UniProt Q92879) | -0.0102 | 0.178
CDK12_Q9NYV4_1009_CTAEQTLQSDFLK (UniProt Q9NYV4) | -0.0275 | 0.00441
CDK5RAP3_Q96JB5_150_KEEECQAGAAEMR (UniProt Q96JB5) | -0.0706 | -0.0264
CENPC_Q03188_291_HAATAPPHSCPPDDTK (UniProt Q03188) | 0.0866 | -0.0296
CD38_P28907_254_DLCQDPTIK (UniProt P28907) | -0.444 | 0.0381
CD68_P34810_314_LQAAQLPHTGVFGQSFSCPSDR (UniProt P34810) | -0.335 | -0.0518
CDC42BPA_Q5VT25_121_AETACFR (UniProt Q5VT25) | 0.111 | 0.448
CENPT_Q96BT3_495_YFQHLCDDLEVFAAHAGR (UniProt Q96BT3) | 0.067 | 0.296
CDC34_P49427_93_MWHPNIYETGDVCISILHPPVDDPQSGELPSER (UniProt P49427) | 0.0445 | 0.0171
CEP76_Q8TAP6_156_SKPVPCACEPDFHDGFLLEVHR (UniProt Q8TAP6) | 0.00849 | -0.166
CD44_P16070_77_ALSIGFETCR (UniProt P16070) | -0.124 | -0.0909
CCT8_P50990_430_QITSYGETCPGLEQYAIK (UniProt P50990) | -0.104 | 0.00767
CDC123_O75794_170_WCELIPGAEFR (UniProt O75794) | -0.0582 | 0.106
CENPF_P49454_2776_SLDCMHK (UniProt P49454) | 0.233 | 0.324
CDKN2C_P42773_141_NHKGDTACDLAR (UniProt P42773) | 0.164 | -0.599
CDK5_Q00535_83_LTLVFEFCDQDLKK (UniProt Q00535) | -0.0323 | 0.223
CEP192_Q8TEP8_882_TCSIDNK (UniProt Q8TEP8) | -0.184 | -0.345
CENPF_P49454_1947_LEYFSCDHQELLQR (UniProt P49454) | 0.249 | 0.198
CFL1_P23528_139_HELQANCYEEVK (UniProt P23528) | -0.0847 | -0.12

An excerpt from further up, as a working copy:
Target | probe-labelled cysteine peptide fold change (10 µM) | probe-labelled cysteine peptide fold change (50 µM)
CD82_P27701_216_TQSGNHPEDWPVYQEGCMEK (UniProt P27701) | -0.269 | -0.033
CCT8_P50990_244_IAVYSCPFDGMITETK (UniProt P50990) | -0.00607 | -0.342
CDC42_P60953_105_EKWVPEITHHCPK (UniProt P60953) | -0.508 | -0.929
CDC27_P30260_137_GSECYQK (UniProt P30260) | -0.0928 | -0.0624
CEP152_O94986_732_EVTAVQECYLEVCR (UniProt O94986) | 0.205 | 0.244
CDC45_O75419_267_HNHRNEDEENTLSVDCTR (UniProt O75419) | 0.0632 | -0.279
CEP170_Q5SW79_235_QVEEQSAAANEEVLFPFCR (UniProt Q5SW79) | -0.166 | 0.167
CDC20_Q12834_313_VAEHHVATLSGHSQEVCGLR (UniProt Q12834) | 0.0629 | 0.0196
CD180_Q99467_419_ECPQLELLDLAFTR (UniProt Q99467) | -0.115 | -0.108
CDCA2_Q69YH5_979_SFCISTLANTK (UniProt Q69YH5) | -0.0796 | -0.162
CD276_Q5ZPR3_383_DLRPGDTVTITCSSYR (UniProt Q5ZPR3) | 0.0128 | 0.0319
CDKAL1_Q5VV42_109_ITENASDADLWLLNSCTVK (UniProt Q5VV42) | 0.15 | 0.198
CELF1_Q92879_150_GCAFVTFTTR (UniProt Q92879) | -0.0102 | 0.178
